Laboratory results taken from patent publication US20150291697A1.
No constants are given. Whether binding was seen depends on the method and setting. Some results given as binding are weak or reduced against the parent protein; the word gives no strength.

Molecular target: human transferrin receptor (TfR) on cells (human) (UniProt P02786)
Assay: flow cytometry on TfR-expressing K562 cells, Alexa488-anti-human IgG

| binding | Binder |
| --- | --- |
| binds | TfR431 antibody (antibody, V domains shown) VH: QVQLVQSGGGVVQPGRSLRLSCAASGFPFKSYGMHWVRQAPGKGLEWVAVISFDGSSKYYADSVKGRFTISRDNSKNTLYLQMNSLRGEDTAVYYCARDSNFWSGYYSPVDVWGQGTTVTVSS VL: DIQMTQSPSSLSASVGDRVTITCRASQIASNSVQWYQQKPGTAPKTVIYEDTQLQSGVPSRFSGSGSGTEFTLTINSLQPEDFATYYCQSYDSAYHWVFGQGTKVEIKR |
| binds | TfR427 antibody (antibody, V domains shown) VH: QVQLVQSGGGVVQPGRSLRLSCAASGFPFKSYGMHWVRQAPGKGLEWVAVISFDGSSKYYADSVKGRFTISRDNSKNTLYLQMNSLRGEDTAVYYCARDSNFWSGYYSPVDVWGQGTTVTVSS VL: DIQMTQSPSSLSASVGDRVTITCRASQIASNSVQWYQQKPGKAPKTVIYEDTQLESGVPSRFSGSGSGTDFTLTISSLQPEDFATYYCQSYDSAYHWVFGQGTKVEIKR |
| binds | TfR430 antibody (antibody, V domains shown) VH: QVQLVQSGGGVVQPGRSLRLSCAASGFPFKSYGMHWVRQAPGKGLEWVAVISFDGSSKYYADSVKGRFTISRDNSKNTLYLQMNSLRGEDTAVYYCARDSNFWSGYYSPVDVWGQGTTVTVSS VL: DIQMTQSPSTLSASVGDRVTITCRASQIASNSVQWYQQKPGKAPKTVIYEDTQLESGVPSRFSGSGSGTEFTLTISSLQPDDFATYYCQSYNSAYQWVFGQGTKVEIKR |
| binds | TfR426 antibody (antibody, V domains shown) VH: QVQLVQSGGGVVQPGRSLRLSCAASGFPFKSYGMHWVRQAPGKGLEWVAVISFDGSSKYYADSVKGRFTISRDNSKNTLYLQMNSLRGEDTAVYYCARDSNFWSGYYSPVDVWGQGTTVTVSS VL: DFMLTQPQSVSESPGKTVIISCTRSTGTIASNSVQWYQQRPGRAPTTVIFDETQRPSGVPDRFSGSIDRSSNSASLTISGLQTEDEADYYCQSYDSRDQWVFGGGTKLTVLG |
| binds | TfR429 antibody (antibody, V domains shown) VH: QVQLVQSGGGVVQPGRSLRLSCAASGFPFKSYGMHWVRQAPGKGLEWVAVISFDGSSKYYADSVKGRFTISRDNSKNTLYLQMNSLRGEDTAVYYCARDSNFWSGYYSPVDVWGQGTTVTVSS VL: DIQMTQSPSTLSASVGDRVTITCRASQIASNSVQWYQQKPGKAPKTVIYEDTQLESGVPSRFSGSGSGTEFTLTISSLQPDDFATYYCQSYNSAYHWVFGQGTKVEIKR |
| binds | TfR428 antibody (antibody, V domains shown) VH: QVQLVQSGGGVVQPGRSLRLSCAASGFPFKSYGMHWVRQAPGKGLEWVAVISFDGSSKYYADSVKGRFTISRDNSKNTLYLQMNSLRGEDTAVYYCARDSNFWSGYYSPVDVWGQGTTVTVSS VL: DIQMTQSPSTLSASVGDRVTITCRASQIASNSVQWYQQKPGKAPKTVIYEDTQLESGVPSRFSGSGSGTEFTLTISSLQPDDFATYYCQSYDSAYHWVFGQGTKVEIKR |
| binds | TfR432 antibody (antibody, V domains shown) VH: QVQLVQSGGGVVQPGRSLRLSCAASGFPFKSYGMHWVRQAPGKGLEWVAVISFDGSSKYYADSVKGRFTISRDNSKNTLYLQMNSLRGEDTAVYYCARDSNFWSGYYSPVDVWGQGTTVTVSS VL: DIQMTQSPSSLSASVGDRVTITCRASQIASNSVQWYQQKPGTAPKTVIYEDTQLQSGVPSRFSGSGSGTEFTLTINSLQPEDFATYYCQSYNSAYHWVFGQGTKVEIKR |

The next lines start with the binder.

| Binder | binding |
| --- | --- |
| TfR423 antibody (antibody, V domains shown) VH: QVQLVQSGGGVVQPGRSLRLSCAASGFPFKSYGMHWVRQAPGKGLEWVAVISFDGSSKYYADSVKGRFTISRDNSKNTLYLQMNSLRGEDTAVYYCARDSNFWSGYYSPVDVWGQGTTVTVSS VL: DSALTQPPSVSGSPGQSVTISCTGSSSNIIASNSVQWYQQLPGTAPKTVIYEDTQRPSGVPDRFSGSKDSSGNTASLTISGLQAEDEADYYCQSYDSAYHWVFGGGTKLAVLG | binds |
| TfR424 antibody (antibody, V domains shown) VH: QVQLVQSGGGVVQPGRSLRLSCAASGFPFKSYGMHWVRQAPGKGLEWVAVISFDGSSKYYADSVKGRFTISRDNSKNTLYLQMNSLRGEDTAVYYCARDSNFWSGYYSPVDVWGQGTTVTVSS VL: DSALTQPPSVSGSPGQSVTISCTGSSSNIIASNSVQWYQQLPGTAPKTVIYENTQRPSGVPDRFSGSKDSSGNTASLTISGLQAEDEADYYCSSYDSAYHWVFGGGTKLAVLG | binds |
| TfR425 antibody (antibody, V domains shown) VH: QVQLVQSGGGVVQPGRSLRLSCAASGFPFKSYGMHWVRQAPGKGLEWVAVISFDGSSKYYADSVKGRFTISRDNSKNTLYLQMNSLRGEDTAVYYCARDSNFWSGYYSPVDVWGQGTTVTVSS VL: DFMLTQPHSVSESPGKTVIISCTRSDGTIAGYYVQWYQQRPGRAPTTVIFEDTQRPSGVPDRFSGSIDRSSNSASLTISGLQTEDEADYYCQSYDSRDHWVFGGGTKLTVLG | binds |
| TfR412 antibody (antibody, V domains shown) VH: DVQLVESGGGLVQPGGSLRLSCAASGFPFKSYGMQWVRQAPGKGLEWVAVISFDGSSRYYADSVKGRFTISRDNSKNTLYLQMNSLRAEDTAVYYCARDGALWGGYYSPVDVWGQGTLVTVSA VL: NFMLTQPHSVSESPGKTVTISCTRSSGSIASNSVQWYQQRPGSAPITVIYEDTQRPSGVPDRFSGSIDSSSNSASLTISGLQTEDEADYYCQSYDSAYHWVFGGGTKLAVLG | binds |
| TfR414 antibody (antibody, V domains shown) VH: DVQLVESGGGLVQPGGSLRLSCAASGFPFKSYAMHWVRQAPGKGLEWVAVISFDGSNKYYADSVKGRFTISRDNSKNTLYLQMNSLRAEDTAVYYCARDGALWGGYYSPVDVWGQGTLVTVSS VL: NFMLTQPHSVSESPGKTVTISCTRSSGSIASNSVQWYQQRPGSAPITVIYEDTQRPSGVPDRFSGSIDSSSNSASLTISGLQTEDEADYYCQSYDSAYHWVFGGGTKLAVLG | binds |
| TfR419 antibody (antibody, V domains shown) VH: DVQLVESGGGLVQPGGSLRLSCAASGFTFSSYAMQWVRQAPGKGLEWVSVISFDGGNRYYADSVKGRFTISRDNSKNTLYLQMNSLRAEDTAVYYCARDGALWGGYYSPVDVWGQGTLVTVSS VL: NFMLTQPHSVSESPGKTVTISCTRSSGSIASNSVQWYQQRPGSAPITVIYEDTQRPSGVPDRFSGSIDSSSNSASLTISGLQTEDEADYYCQSYDSAYHWVFGGGTKLAVLG | binds |
| TfR416 antibody (antibody, V domains shown) VH: DVQLVESGGGLVQPGGSLRLSCAASGFPFKSYGMQWVRQAPGKGLEWVAVISFDGGSRYYADSVKGRFTISRDNSKNTLYLQMNSLRAEDTAVYYCARDGALWGGYYSPVDVWGQGTLVTVSS VL: NFMLTQPHSVSESPGKTVTISCTRSSGSIASNSVQWYQQRPGSAPITVIYEDTQRPSGVPDRFSGSIDSSSNSASLTISGLQTEDEADYYCQSYDSAYHWVFGGGTKLAVLG | binds |
| TfR413 antibody (antibody, V domains shown) VH: DVQLVESGGGLVQPGGSLRLSCAASGFPFKSYAMHWVRQAPGKGLEWVAVISYDGSNKYYADSVKGRFTISRDNSKNTLYLQMNSLRAEDTAVYYCARDGALWGGYYSPVDVWGQGTLVTVSS VL: NFMLTQPHSVSESPGKTVTISCTRSSGSIASNSVQWYQQRPGSAPITVIYEDTQRPSGVPDRFSGSIDSSSNSASLTISGLQTEDEADYYCQSYDSAYHWVFGGGTKLAVLG | binds |
| TfR415 antibody (antibody, V domains shown) VH: DVQLVESGGGLVQPGGSLRLSCAASGFPFKSYAMHWVRQAPGKGLEWVAVISFDGGSRYYADSVKGRFTISRDNSKNTLYLQMNSLRAEDTAVYYCARDGALWGGYYSPVDVWGQGTLVTVSS VL: NFMLTQPHSVSESPGKTVTISCTRSSGSIASNSVQWYQQRPGSAPITVIYEDTQRPSGVPDRFSGSIDSSSNSASLTISGLQTEDEADYYCQSYDSAYHWVFGGGTKLAVLG | binds |
| TfR417 antibody (antibody, V domains shown) VH: DVQLVESGGGLVQPGGSLRLSCAASGFTFSSYAMQWVRQAPGKGLEWVAVISFDGGSRYYADSVKGRFTISRDNSKNTLYLQMNSLRAEDTAVYYCARDGALWGGYYSPVDVWGQGTLVTVSS VL: NFMLTQPHSVSESPGKTVTISCTRSSGSIASNSVQWYQQRPGSAPITVIYEDTQRPSGVPDRFSGSIDSSSNSASLTISGLQTEDEADYYCQSYDSAYHWVFGGGTKLAVLG | binds |
| TfR421 antibody (antibody, V domains shown) VH: QVQLVQSGGGVVQPGRSLRLSCAASGFPFKSYGMHWVRQAPGKGLEWVAVISFDGSSKYYADSVKGRFTISRDNSKNTLYLQMNSLRGEDTAVYYCARDSNFWSGYYSPVDVWGQGTTVTVSS VL: DFMLTQPHSVSESPGKTVTISCTRSSGSIASNYVQWYQQRPGSSPTTVIYEDNQRPSGVPDRFSGSIDSSSNSASLTISGLKTEDEADYYCQSYDSSNHWVFGGGTKLAVLG | binds |
| TfR420 antibody (antibody, V domains shown) VH: DVQLVESGGGLVQPGGSLRLSCAASGFTFSSYAMQWVRQAPGKGLEWVSIVSFDGGNRYYADSIKGRFTISRDNSKNTLYLQMNSLRAEDTAVYYCARDGALWGGYYSPIDVWGQGTLVTVSS VL: NFMLTQPHSVSESPGKTVTISCTRSSGSIASNSVQWYQQRPGSAPITVIYEDTQRPSGVPDRFSGSIDSSSNSASLTISGLQTEDEADYYCQSYDSAYHWVFGGGTKLAVLG | binds |
| TfR418 antibody (antibody, V domains shown) VH: DVQLVESGGGLVQPGGSLRLSCAASGFTFSSYGMQWVRQAPGKGLEWVAVISFDGGSRYYADSVKGRFTISRDNSKNTLYLQMNSLRAEDTAVYYCARDGALWGGYYSPVDVWGQGTLVTVSS VL: NFMLTQPHSVSESPGKTVTISCTRSSGSIASNSVQWYQQRPGSAPITVIYEDTQRPSGVPDRFSGSIDSSSNSASLTISGLQTEDEADYYCQSYDSAYHWVFGGGTKLAVLG | binds |
| TfR422 antibody (antibody, V domains shown) VH: QVQLVQSGGGVVQPGRSLRLSCAASGFPFKSYGMHWVRQAPGKGLEWVAVISFDGSSKYYADSVKGRFTISRDNSKNTLYLQMNSLRGEDTAVYYCARDSNFWSGYYSPVDVWGQGTTVTVSS VL: DFMLTQPQSVSESPGKTVTISCTRSSGSIASNYVQWYQQRPGSSPTTVIYEDNQRPSGVPDRFSGSIDSSSNSASLTISGLKTEDEADYYCQSYDSSNQWVFGGGTKLAVLG | binds |
